## Library screen at single concentrations

The filed quantity is “Percent Effect” (%). How 0% and 100% were set is not recorded. Most values in the screen are low, and negative values occur. The compounds are a random part of those screened. Two or more numbers in one place are separate tests of the same structure; such repeats can differ widely.

A: 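Growth of Mycobacterium tuberculosis over 4 days (cholesterol / DPPC medium with tyloxapol); the read-out is not stated. Concentration: 50 µM. The record gives no direction; compounds that gave an IC50 in retests scored well above the rest, so higher reads as more growth inhibition. Size under these conditions: about 69,000 compounds, about 370 of them at 50% or above in at least one test.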
B: 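Growth of Mycobacterium tuberculosis over 3 days (7H9 medium with glucose and tyloxapol); the read-out is not stated. Tested at 50 µM. Direction is inferred from retests: higher values go with more growth inhibition. Of about 69,000 compounds tested this way, about 760 (1.1%) reached 50% or more in at least one test.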

compound,A,B
O[C@H]1CN(CCCOc2ccccc2F)CC[C@@]12CCCO2,-5.439% and -4.852%,-12.32%
COCC1CCCCN1C(=O)c1cc(Cn2ccc3ccccc32)[nH]n1 (stereo not given),1.828%,29.03%
O=S(=O)(c1ccc(F)cc1Cl)N1CCCC1c1ccncc1 (stereo not given),-18.8% and -10.84%,-5.054%
CCc1nc(NS(=O)(=O)c2cc(C)c(F)cc2Cl)no1,-17.16%,2.273%
Cc1nnc(CN(Cc2ccc3c(c2)OCO3)C2CCCCC2)o1,-2.617%,14.95% and 2.728%
CCOC(C)c1nc(CN2CCNCC2)cs1 (stereo not given),21.04%,-10.51%
CC(C)c1nnc(NC(=O)CCC(=O)NCC2CCCO2)s1 (stereo not given),-16.07%,-4.195%
CCS(=O)(=O)Nc1ccc2oc(C)c(C(=O)OC)c2c1,-3.193%,-26.6% and 1.905%
CCc1nc(C2CCCN2Cc2nc(Cc3ccccc3)no2)no1 (stereo not given),-6.149%,-21.43%
[H][C@@]12C[C@H](C(=O)NC3CCC3)[C@@]([H])(CN(S(=O)(=O)c3cccc(C)c3)C1)O2,-8.178%,-2.769% and -36.05%
O=C(Cc1cccnc1)N1CCCC2(CCN(CC3CCOCC3)C2)C1 (stereo not given),2.191%,13.46%
O=C1CC(C(=O)NCCN2CCOC2=O)c2cc(F)ccc2N1 (stereo not given),2.631%,-1.95%
O=C(Cc1c[nH]c2ccccc12)N1CCC(Nc2ccccc2)CC1,-38.03%,-1.209%
CC(=O)CN1CCC2(CC1)c1ccccc1[C@@H](N1CCSCC1)[C@@H]2O,2.543%,17.54%
Cn1cc(CNc2ccc(F)c(N3CCCS3(=O)=O)c2)cn1,11.52%,25.22%
O=C(Nc1cccc(C(F)F)c1)N[C@@H]1C=C[C@H](CO)C1,3.219%,-0.05495% and 0.7177%
CC(C(=O)N1CCCN(c2ccc(C#N)cc2)CC1)n1ccnc1 (stereo not given),9.269%,17.62%
CN(C)S(=O)(=O)N1CCC2(COCc3cnc(NCC4CC4)nc32)C1 (stereo not given),-35.97%,-31.07%
COc1ccc(Oc2ccc(CNC(=O)C3CCS(=O)(=O)C3)cn2)cc1 (stereo not given),10.57% and 2.718%,-4.265%
N#CC1(NC(=O)c2ccc(-c3nc(C4CC4)n[nH]3)cc2)CCSC1 (stereo not given),8.99%,14.06%
CCc1cc(CNC(=O)N(C2CC2)C(C)c2ccco2)on1 (stereo not given),11.74%,-16.59%
CCn1cc(NC(=O)C2CCN(CC(=O)NCC(C)C)CC2)cn1,-7.819%,-17.08%
O=C(NCCc1nncn1C1CC1)c1cnn(Cc2ccccc2)c1,21.57%,13.44% and 2.446%
O=C(C1CCCS1)N1CCOc2cccc(F)c21 (stereo not given),-22.6%,-1.119%
Cc1ccc(C(=O)N2CCCC(Nc3ccc(F)cc3)C2)cc1 (stereo not given),26.34% and 51.18%,22.67%
COCCNC(=O)N1CCSC2(CCCCC2)C1,12.67% and 20.32%,31.59%
C=C(C)COc1cccc(C(=O)N(C)C(C)c2c(C)n[nH]c2C)c1 (stereo not given),-8.679%,20.67%
COc1cc(CC2CC(C(N)=O)=NO2)cc2c1OCO2 (stereo not given),-9.384%,4.531%
CC(C)c1cc(NC2CCN(C(=O)N3CCCC3)CC2)ncn1,-22.08%,-2.364%
CC1CCN(CCCNC(=O)Nc2cc3c(cc2Br)OCCO3)CC1,-25.34%,-8.21% and -13.07%
Cc1ccn(CCC(=O)NCc2ccco2)n1,-13.65%,33.7%
c1cncc(-c2noc(CN3CCn4c(nnc4C4CC4)C3)n2)c1,6.7%,-1.756%
CC(OCC1CC1)C(=O)N1CCCN(c2ncccc2C#N)CC1 (stereo not given),-23.15%,-4.428%
Cn1ccnc1CNC1CCCN(Cc2noc(C3CC3)n2)C1 (stereo not given),6.407%,-21.3%
Cc1ccc2[nH]c(C(=O)N3CCCC3Cn3cccn3)cc2c1 (stereo not given),12.86%,22.93%
O=C(c1ncoc1-c1ccco1)N(Cc1ccco1)CC1CCCO1 (stereo not given),8.865%,-4.072% and -1.443%
Cn1nccc1-c1nnn2c1COC(CNCc1nccs1)C2.O=C(O)C(F)(F)F (stereo not given),-6.636%,4.013%
O=C(C1CCOC1)N1Cc2ccccc2OC2(CCOCC2)C1 (stereo not given),8.455%,18.08%
CCc1nc(CN2CCCC(NCc3cc(C)no3)C2)no1 (stereo not given),0.5811%,-24.77%
CN(C)C(=O)NCc1cc(=O)n2c(n1)CN(Cc1ccoc1)CCC2.O=C(O)C(F)(F)F,-18.46%,-32.63%
Cc1nc(N)sc1C(=O)N1CCC(C(O)Cc2ccccc2)CC1 (stereo not given),6.135%,20.95% and -1.345%
Clc1ccccc1C1(c2ccnc(C3CC3)n2)CCNCC1,-22.45%,-9.656%
CCCn1cc(C(=O)NCC(=O)NC2CC2)c(C)n1,-2.972% and -4.203%,-7.817%
CN(C(=O)C1CCN(Cc2cnc3ccccn23)CC1)c1ccccc1,10.88%,-8.679%
CC(C)N(C(=O)N1CCn2cncc2C1)C(C)C,-4.479% and -24.69%,13.82%
[H][C@]12CC[C@]([H])(CN(Cc3ccccc3C#N)C1)N(CC1CC1)C2=O,1.898%,10.02%
CN(C)c1nc2c(c(N3CCC(O)CC3)n1)CN(CC1CCOC1)CC2 (stereo not given),-17.61%,-1.854% and -12.13%
CN1C(=O)C(c2cccnc2)CC12CCN(C(=O)c1ccc[nH]1)CC2 (stereo not given),-35.5%,-35.44% and -5.601%
CN(Cc1ccccc1C(F)(F)F)C(C(N)=O)c1ccccc1 (stereo not given),-37.21%,-35.98%
c1ccc(OCCSC2=NCCN2)cc1,5.723%,32.06%
[H][C@]12CN(C(=O)c3ccc(C)c(Cl)c3)CC[C@@]1(O)CCN(C(=O)N(C)C)C2,-8.364%,-45.63%
CC(=O)NCc1cccc(-n2ccnc2-c2cccc(C(=O)O)c2)c1,-36.28%,9.186%
O=C(O)C(F)(F)F.[H][C@@]12CCN(Cc3ccc4c(c3)OCO4)C[C@]1([H])O[C@H](C(=O)N(C)C)C2,-20.76%,-33.98%
[H][C@@]12CCN(Cc3ccncc3)C[C@@]1([H])O[C@H](C)C2,-15.13%,0.08997%
CC(C(=O)Nc1ccc(Cl)cn1)n1ccc(C(F)(F)F)n1 (stereo not given),5.584%,34.11%
O=C(O)C(F)(F)F.[H][C@]12CCN(C(=O)Cc3ccccc3)C[C@@]1([H])OCCN(CCOC)C2,-8.583%,-47.56% and -14.76%
CC(=O)NCC(=O)N1CCOC2(CCCN(c3ccc(C)nn3)C2)C1 (stereo not given),0.8951% and -8.583%,-15.03%
NC(=O)C1CCN(C(=O)CCSCc2ccc(Cl)c(Cl)c2)CC1,6.368% and -11.65%,-28.25%
Cc1ccc(NCCCNC(=O)C2CC3(CCNCC3)CN2C)nc1 (stereo not given),18.13%,7.38%
O=S(=O)(NCCc1c[nH]c2ccc(F)cc12)C1CCOCC1,12.31%,13.62%
CS(=O)(=O)N1CCOCC2(CCN(C(=O)c3ccco3)CC2)C1,13.24%,15.83%
CS(=O)(=O)c1ccc(NC(=O)N2C[C@H](O)[C@@H](N3CCOCC3)C2)cc1,1.425%,33.82%
Cn1nnc2cc(C(=O)N3CCCC3Cc3ccccc3)ccc21 (stereo not given),-1.703%,2.312% and 8.116%
O=C(CCC(=O)Nc1nnc(C2CCCCC2)s1)NCC1CCCO1 (stereo not given),-18.17%,-10.56%
N#CCCCS(=O)(=O)N1CCC(CSc2ccccc2)C1 (stereo not given),5.359%,18.38%
COCCC(=O)N1C[C@@H](O)[C@H](N2CCN(c3ccccc3)CC2)C1,0.7406% and -5.248%,-23.57%
CC(Cn1cccn1)NC(=O)Nc1ccc(F)cc1 (stereo not given),-26.67%,-21.68% and -5.146%
CCc1nnc2n1CCN(C(=O)c1cc3c(F)cccc3[nH]1)C2,10.15%,35.11%

5 of the entries, repeated:

| compound | A | B |
|---|---|---|
| `[H][C@@]12C[C@H](C(=O)NC3CCC3)[C@@]([H])(CN(S(=O)(=O)c3cccc(C)c3)C1)O2` | -8.178% | -2.769% and -36.05% |
| `CS(=O)(=O)c1ccc(NC(=O)N2C[C@H](O)[C@@H](N3CCOCC3)C2)cc1` | 1.425% | 33.82% |
| `CCc1nc(NS(=O)(=O)c2cc(C)c(F)cc2Cl)no1` | -17.16% | 2.273% |
| `CN(C)c1nc2c(c(N3CCC(O)CC3)n1)CN(CC1CCOC1)CC2` (stereo not given) | -17.61% | -1.854% and -12.13% |
| `Cn1nnc2cc(C(=O)N3CCCC3Cc3ccccc3)ccc21` (stereo not given) | -1.703% | 2.312% and 8.116% |

Source: ChEMBL document CHEMBL3988442, “University of Dundee, Small-Polar-MMV Screening Library” (2021).